# Experimental data published in PubChem BioAssay (NCATS).
# The shares of active, inactive and inconclusive entries below differ from those in the screen. Potencies of inconclusive entries are doubtful fits and often do not repeat. Calls of active or inactive are those of the source. Unless noted, calls follow the shape of the full dose curve.
# Columns and labels:
# [1] = Confirmatory qHTS for activators (rescue) of SARS-CoV-2 Cytopathic Effect (CPE) (AID 1508606); also: nearly all actives have a fitted effect of over 70% in size
# [2] = Cytotoxicity counterscreen for inhibitors of SARS-CoV-2 cell entry (AID 1645845); conditions: activity change, negative = cytotoxicity: at 57.1 µM (top of the series) unless noted; also: nearly all actives have a fitted effect of over 50% in size; as to activity change, negative = cytotoxicity: % is scaled to controls: 0 for no effect and ±100 for the full control effect
# In short: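 Expi293F/hACE2 cells seeded overnight; cpd pin-transferred in DMSO, 1 h preincubation, + media, 48 h 37 C 5% CO2; ATPLite 1step luminescence; normalized to cells and no cells.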
# [3] = Primary qHTS to identify inhibitors of SARS-CoV-2 cell entry (AID 1645846); conditions: activity change, negative = inhibition: at 57.1 µM (top of the series); also: nearly all actives have a fitted effect of over 45% in size
# In short: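 HEK293 cells stably expressing human ACE2, pre-treated 1 h with compound, then infected with MLV particles pseudotyped with Wuhan-Hu-1 spike (C-terminal 19-aa truncation). Luciferase luminescence after 48 h at 37 °C, normalised to spike PP and bald PP.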
# [4] = biological target: Ubiquitin carboxyl-terminal hydrolase 1 (Homo sapiens) (UniProt O94782); assay: Inhibitors of USP1/UAF1: Pilot qHTS (AID 504865; active = well fitted curve in the direction sought with a large enough effect; inconclusive = small, poorly fitted or top-dose-only effect, or another doubt; inactive = no such curve, though single readings can be large; an effect the other way counts as inactive or inconclusive; also: nearly all actives have a fitted effect of over 35% in size)
# In short: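 USP1/UAF1 complex at 1 nM preincubated 15 min at room temperature with compound, then Ub-Rho substrate added at 150 nM final. Fluorescence (480/540 nm) read kinetically in 50 mM HEPES pH 7.8, 0.5 mM EDTA, 1 mM TCEP, 0.1 mg/ml BSA, 0.01% Tween-20.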
# [5] = Counterscreen qHTS for small molecule stabilizers of the endoplasmic reticulum resident proteome: GLuc-NoTag assay (AID 1508627; active = well fitted curve in the direction sought with a large enough effect; inconclusive = small, poorly fitted or top-dose-only effect, or another doubt; inactive = no such curve, though single readings can be large; an effect the other way counts as inactive or inconclusive)
# In short: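 SH-SY5Y cells stably expressing constitutively secreted GLuc (no SERCaMP tag) were pre-incubated 5 h, treated with compound for 19 h, then 100 nM thapsigargin for 4 h at 37C; medium GLuc read by coelenterazine luminescence.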
# [6] = Cell Viability qHTS for small molecule stabilizers of the endoplasmic reticulum resident proteome (AID 1508629; active = well fitted curve in the direction sought with a large enough effect; inconclusive = small, poorly fitted or top-dose-only effect, or another doubt; inactive = no such curve, though single readings can be large; an effect the other way counts as inactive or inconclusive;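 also: compound exposure about 46 h in total before the viability read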); conditions: cell viability counter-screen, 100 nM thapsigargin for final 4 h
# [7] = Primary qHTS for small molecule stabilizers of the endoplasmic reticulum resident proteome: Secreted ER Calcium Modulated Protein (SERCaMP) assay (AID 1508630; active = well fitted curve in the direction sought with a large enough effect; inconclusive = small, poorly fitted or top-dose-only effect, or another doubt; inactive = no such curve, though single readings can be large; an effect the other way counts as inactive or inconclusive); conditions: SH-SY5Y GLuc-SERCaMP secretion, thapsigargin, luminescence; activity change, negative = inhibition: at 38.4 µM (top of the series)
# In short: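 GLuc-SERCaMP-expressing SH-SY5Y cells, pretreated 16 h with compound, are challenged with thapsigargin to empty ER calcium stores; after 4 h, coelenterazine is added directly to the medium and luminescence is imaged.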
# Potency is read from the fitted curve at half-maximal effect.
smiles,measurement,setting,value
CSc1ccc(C(=O)/C=C/c2cc(C)c(OC(C)(C)C(=O)O)c(C)c2)cc1,Potency,[1],"inconclusive: 20 µM [activator, partial curve]"
same,"activity change, negative = cytotoxicity",[2],inconclusive: -40.6% [at 114 µM]
same,Potency,[3],"inconclusive: 89.1 µM [inhibitor, single point]"
Cc1ncc(NC(=O)c2ccc(CN3CCN(C)CC3)c(C(F)(F)F)c2)cc1Nc1nccc(-c2cccnc2)n1,Potency,[1],active: 10 µM
same,Potency,[3],"inconclusive: 17.8 µM [inhibitor, partial curve, poor fit]"
c1ccc2c(-c3cnn4cc(-c5ccc(OCCN6CCOCC6)cc5)cnc34)ccnc2c1,Potency,[1],"inconclusive: 4.92 µM [activator, single point]"
same,Potency,[2],"inconclusive: 3.55 µM [cytotoxic, full curve]"
COc1ccc2c(c1)[C@]1(C[C@H]1c1ccc3c(/C=C/c4ccc(CN5C[C@@H](C)O[C@@H](C)C5)cc4)n[nH]c3c1)C(=O)N2,Potency,[1],"inconclusive: 10 µM [activator, single point]"
same,Potency,[2],"inconclusive: 12.6 µM [cytotoxic, partial curve, poor fit]"
same,Potency,[3],"inconclusive: 8.91 µM [inhibitor, full curve, poor fit]"
CN1CCN(c2ccc(C(=O)Nc3n[nH]c4ccc(Cc5cc(F)cc(F)c5)cc34)c(NC3CCOCC3)c2)CC1,Potency,[1],inactive
same,Potency,[2],active: 31.6 µM
same,Potency,[3],active: 28.2 µM
CN(C)c1ccc(C2Nc3ccc4ccccc4c3C3=C2C(=O)CC(C)(C)C3)cc1Br (stereo unspecified),Potency,[1],inactive
Oc1ccc2c3c1O[C@H]1c4c(c5ccccc5n4Cc4ccccc4)C[C@]4(O)[C@H](C2)N(CC2CC2)CC[C@@]314,Potency,[4],"inconclusive: 20 µM [inhibitor, full curve]"
same,Potency,[5],"inconclusive: 31.6 µM [inhibitor, single point]"
same,Potency,[6],"inconclusive: 31.6 µM [cytotoxic, single point]"
same,Potency,[7],"inconclusive: 2.24 µM [inhibitor, full curve, poor fit]"
CCCc1cc(C)[nH]c(=O)c1CNC(=O)c1cc(-c2ccnc(N3CCN(C)CC3)c2)cc2c1cnn2C(C)C,Potency,[1],"inconclusive: 12.6 µM [activator, single point]"
same,Potency,[2],"inconclusive: 15.8 µM [cytotoxic, partial curve]"
same,Potency,[3],"inconclusive: 39.8 µM [inhibitor, single point]"

# Rewritten as tab-separated lines: part of the list above
smiles	measurement	setting	value
CSc1ccc(C(=O)/C=C/c2cc(C)c(OC(C)(C)C(=O)O)c(C)c2)cc1	Potency	[3]	inconclusive: 89.1 µM [inhibitor, single point]
Cc1ncc(NC(=O)c2ccc(CN3CCN(C)CC3)c(C(F)(F)F)c2)cc1Nc1nccc(-c2cccnc2)n1	Potency	[1]	active: 10 µM
